Experimental data published in article PMC12109719.

Biological target: CA125 (carbohydrate antigen 125) (UniProt Q8WXI7)
Test: imaging weak measurement, direct (no antibody)
Conditions: CA125 100 U/mL (8th of 9 listed points); 5'-NH2; PBS+ (10 mM PBS, 5 mM MgCl2) as reference channel; aptamer 2 uM immobilized on polydopamine-coated prism, 2% blocking solution; readout at 55 min; commercial protein; single-stranded DNA

CTCACTACTATAGGGATAGGGAGACAAGAATAAACGCTCAA [CA125-1 aptamer]
binding signal: 194 a.u.

Construct, isoform or probe ends are uncertain for at least one entry. Whether high values mean tight binding is not given here for every scale.
